PubChem BioAssay AID1259425 – University of Nebraska Medical Center, 2018
In all, the deposit lists about 14,000 reagents; this is a part drawn at random. Not stated in the record: the time to read-out.

Assay: 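Find knockdowns that reproduce the gene expression pattern seen when KSR1 is lost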 (primary screen)
Cell system: HCT116 human colon cancer cells
Reagents: siRNA pool against human genes, 50 nM siRNA
Read-out: 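After 50 nM siRNA pool, branched-DNA assay measures six marker transcripts per well, minus blank, normalised to the geometric mean of two housekeeping transcripts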
Reading the numbers: BNIP3L mRNA: higher = more BNIP3L transcript after knockdown; NDRG1 mRNA: higher = more NDRG1 transcript after knockdown; BNIP3 mRNA: higher = more BNIP3 transcript after knockdown; ALDOC mRNA: higher = more ALDOC transcript after knockdown; ACSL5 mRNA: higher = more ACSL5 transcript after knockdown

gene symbol	BNIP3L mRNA, set 1	NDRG1 mRNA, set 1	BNIP3 mRNA, set 1	ALDOC mRNA, set 1	ACSL5 mRNA, set 1
ABI3BP (ABI family member 3 binding protein)	0.188	0.302	0.538	0.0266	0.219
RPH3AL (rabphilin 3A like (without C2 domains))	0.582	0.434	0.564	0.0365	0.295
TTLL1 (TTL family tubulin polyglutamylase complex subunit L1)	0.203	0.367	0.324	0.0167	0.281
RNF34 (ring finger protein 34)	0.103	0.297	0.336	0.0487	0.192
SLC45A1	0.0677	0.214	0.376	0.0296	0.229
SLC22A12	0.0765	0.0881	0.155	0.00641	0.0777
SFRP5 (secreted frizzled related protein 5)	0.185	0.268	0.295	0.0375	0.255
PPP1R8 (protein phosphatase 1 regulatory subunit 8)	0.0839	0.119	0.228	0.0335	0.111
BAGE3 (BAGE family member 3)	0.205	0.301	0.256	0.0375	0.295
ATP5F1D (ATP synthase F1 subunit delta)	0.312	1.04	0.304	0.0672	0.185
ZNF451 (zinc finger protein 451)	0.0863	0.0739	0.419	0.0348	0.113
SLX9 (SLX9 ribosome biogenesis factor)	0.121	0.18	0.196	0.0263	0.104
DDAH2 (DDAH family member 2, ADMA-independent)	0.133	0.283	0.459	0.0223	0.285
SKP2 (S-phase kinase associated protein 2)	0.0489	0.602	0.224	0.0401	0.226
ANP32A (acidic nuclear phosphoprotein 32 family member A)	0.0871	0.221	0.374	0.0372	0.0767
VMA22 (vacuolar ATPase assembly factor VMA22)	0.119	0.135	0.279	0.102	0.245
SPAG4 (sperm associated antigen 4)	0.087	0.218	0.251	0.0391	0.156
PSMC1 (proteasome 26S subunit, ATPase 1)	0.171	1.94	0.356	0.0221	0.155
ACOX3 (acyl-CoA oxidase 3, pristanoyl)	0.104	0.233	0.311	0.0271	0.194
CEP164 (centrosomal protein 164)	0.19	0.128	0.262	0.00959	0.0562
TRIP10 (thyroid hormone receptor interactor 10)	0.0769	0.112	0.186	0.014	0.15
TNNI2 (troponin I2, fast skeletal type)	0.124	0.16	0.271	0.0118	0.171
SHC1 (SHC adaptor protein 1)	0.248	0.0782	0.377	0.024	0.33
EFCAB14 (EF-hand calcium binding domain 14)	0.0981	0.0467	0.437	0.00943	0.105
SIRT3 (sirtuin 3)	0.204	0.41	0.489	0.0395	0.157
LPCAT2 (lysophosphatidylcholine acyltransferase 2)	0.0954	0.217	0.169	0.0195	0.316
S100A14 (S100 calcium binding protein A14)	0.0833	0.105	0.358	0.0173	0.173
LHX6 (LIM homeobox 6)	0.234	0.224	0.369	0.0121	0.17
RAB14 (RAB14, member RAS oncogene family)	0.0827	0.166	0.285	0.0379	0.172
KCNE1	0.0725	0.252	0.267	0.0231	0.153
RPL6 (ribosomal protein L6)	0.661	0.829	0.462	0.0497	0.256
LOC84843 (retired record)	0.109	0.128	0.345	0.0658	0.0979
ELF3 (E74 like ETS transcription factor 3)	0.0586	0.172	0.289	0.00291	0.362
SV2C (synaptic vesicle glycoprotein 2C)	0.105	0.296	0.247	0.0277	0.176
GSKIP (GSK3B interacting protein)	0.206	0.545	0.705	0.0307	0.404
NACAD (NAC alpha domain containing)	0.0634	0.428	0.481	0.0325	0.117
ARHGEF12 (Rho guanine nucleotide exchange factor 12)	0.128	0.121	0.253	0.0492	0.148
BGLAP (bone gamma-carboxyglutamate protein)	0.157	0.109	0.248	0.00807	0.0875
NOS2 (nitric oxide synthase 2)	0.116	0.174	0.386	0.026	0.209
POLA2 (DNA polymerase alpha 2, accessory subunit)	0.112	0.604	0.372	0.0524	0.382
PSMA2 (proteasome 20S subunit alpha 2)	0.129	0.262	0.281	0.012	0.158
PCYOX1 (prenylcysteine oxidase 1)	0.145	0.129	0.287	0.0644	0.207
PLBD1 (phospholipase B domain containing 1)	0.129	0.315	0.311	0.0692	0.235
PLXNA1 (plexin A1)	0.0922	0.0946	0.237	0.0237	0.134
MX2 (MX dynamin like GTPase 2)	0.0525	0.184	0.257	0.0179	0.131
OGFOD3	0.153	0.118	0.352	0.0266	0.132
BUB3 (BUB3 mitotic checkpoint protein)	0.175	0.53	0.252	0.015	0.123
ANXA13 (annexin A13)	0.102	0.19	0.271	0.00481	0.288
LOX (lysyl oxidase)	0.0734	0.121	0.223	0.0164	0.164
GABRG1 (gamma-aminobutyric acid type A receptor subunit gamma1)	0.0572	0.0744	0.185	0.0235	0.0757
